Percent effect of library compounds

By UniProt entry, the sequences of proteins in these tests, tags left out.
UniProt P9WNZ1, whole entry: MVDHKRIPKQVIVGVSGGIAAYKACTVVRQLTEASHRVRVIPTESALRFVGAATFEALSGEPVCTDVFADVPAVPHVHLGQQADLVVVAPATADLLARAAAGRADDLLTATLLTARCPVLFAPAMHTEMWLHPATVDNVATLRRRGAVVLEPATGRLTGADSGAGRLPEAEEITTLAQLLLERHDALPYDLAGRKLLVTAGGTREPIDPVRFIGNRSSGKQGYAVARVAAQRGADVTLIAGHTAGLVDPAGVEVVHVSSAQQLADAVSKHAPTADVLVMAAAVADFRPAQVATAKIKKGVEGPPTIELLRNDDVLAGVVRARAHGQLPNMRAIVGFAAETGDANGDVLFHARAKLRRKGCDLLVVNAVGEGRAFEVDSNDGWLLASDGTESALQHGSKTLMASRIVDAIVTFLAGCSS

A: 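Cell assay of Leishmania donovani living inside macrophages; the read-out is not stated. Tested at 30 µM. Direction is inferred from retests: higher values go with stronger inhibition. Size under these conditions: about 69,000 compounds, about 1,000 of them at 50% or above in at least one test.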
B: 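Coenzyme A biosynthesis protein CoaBC, Mycobacterium tuberculosis (UniProt P9WNZ1). Enzyme assay of CoaBC with a phosphate dye (Biomol Green) read at 650 nm. Compounds at 30 µM. Direction is inferred from only a few compounds that gave an IC50; most scored high, so higher reads as stronger inhibition. Most strong results did not repeat in a second test. Size under these conditions: about 67,000 compounds, about 40 of them at 50% or above in at least one test.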

Values are the deposited “Percent Effect”, in %.
How 0% and 100% were set is not recorded. Most values in the screen are low, and negative values occur.
Compounds were drawn at random from those tested, without regard to their results.
Two or more numbers in one place are separate tests of the same structure; such repeats can differ widely.

With O=C(CCC(=O)N1CCC(c2noc3cc(F)ccc23)CC1)NC1CC1 the screen gave A: -9.542%; B: -2.421%.
With c1ccc(COC[C@H]2CC[C@H]3[C@H](CCN3Cc3ccco3)O2)nc1 the screen gave B: 5.654%.
With O=C(NCCc1cnccn1)c1ccc(S(=O)(=O)NC2CCC2)cc1 the screen gave A: -30.03%; B: 5.383%.
With Cc1ccc(CC(=O)N2CCOCC2c2c(C)n[nH]c2C)cc1 (stereo not given) the screen gave A: -14.88%; B: 4.937%.
With O=C(Cc1ccsc1)N1C[C@@H]2CN(Cc3ccoc3)CCO[C@@H]2C1 the screen gave B: 4.37%.
With NC(=O)C1CN(c2ccc(Br)cn2)CCO1 (stereo not given) the screen gave A: 32.24%; B: 0.8963%.
With CC(C)C(NC(=O)c1nc(N2CCOCC2)ncc1Cl)c1cccs1 (stereo not given) the screen gave A: -21.22%; B: 7.6%.
With Cc1nc2c(NCC(C)N(C)c3ccccc3)ncnc2o1 (stereo not given) the screen gave A: 33.01%; B: 0.2058%.
With CN(C)CCOCC1CN(Cc2cccs2)Cc2ccnn2C1.O=C(O)C(F)(F)F.O=C(O)C(F)(F)F.O=C(O)C(F)(F)F (stereo not given) the screen gave A: 19.87%.
With O=C1CCC[C@]2(CN(S(=O)(=O)N3CCOCC3)C[C@H]2c2cccnc2)N1 the screen gave A: 9.541%; B: 6.061%.
With COc1cccc(-n2ccc3nc(N4CCCC4)ncc3c2=O)c1 the screen gave A: 1.081%; B: 4.925%.
With c1cnc(N2CCO[C@H]3[C@H](OCc4cccnc4)CC[C@@H]32)nc1 the screen gave B: -5.308%.
With Cc1nc(CN(C)CC2CCCN(CCc3ccc(Cl)cc3)C2)n(C)n1 (stereo not given) the screen gave A: 58.41% and 34.12%; B: 1.781%.
With CN(C)C(=O)N1CCc2c(nnn2C)C1COCC1CC1 (stereo not given) the screen gave A: -17.71%; B: 8.469%.
With O=C(O)c1nnn(-c2ccc(OC(F)(F)F)cc2)c1-c1ccncc1 the screen gave A: 2.344%; B: 4.723%.
With Cc1cc(C(=O)NCCN2CCN(S(C)(=O)=O)CC2)no1 the screen gave B: 11.34%.
With O=C(CN1CCCC1Cn1cncn1)NCCC1=CCCCC1 (stereo not given) the screen gave A: 8.353%; B: 4.199%.
With CC(=O)NCC(=O)N1CCN(CCN(C)C)c2ncccc2C1 the screen gave B: 6.057%.
With Cl.Cl.OC(CN1CCN(Cc2ccc(F)cc2)CC1)C1CC1 (stereo not given) the screen gave A: 27.06%.
With CNC(=O)NC(=O)CN1CCCC(Cc2ccccc2OC)C1 (stereo not given) the screen gave A: -7.931%; B: 9.287%.
With Cc1nc(C)n(CC2CCCCN2CCCN2CCCC2=O)n1 (stereo not given) the screen gave A: 4.563%; B: 3.667%.
With COc1ccc2c(C)c(C(=O)NC3CCOCC3)oc2c1 the screen gave A: 35.84%; B: 5.857%.
With COc1ccc(NC(=O)NCC(O)c2ccc(F)cc2F)c(OC)c1 (stereo not given) the screen gave A: 1.663%; B: 8.616%.
With Cc1nc(N2CCN(C(=O)NCc3cscn3)CC2)sc1C the screen gave A: -7.731%; B: 4.569%.
With COc1cccc(CN(C)C(=O)c2csc(-c3nnc[nH]3)n2)c1 the screen gave A: 38.82%; B: 4.377%.
With Cn1cncc1CN1CCC(O)(Cn2nc(-c3cccs3)oc2=O)CC1 the screen gave B: -3.313%.
With Cc1nn(C)c(N2CCCN(C)CC2)c1CNC(=O)CCC(C)C the screen gave A: -1.294%; B: 6.776%.
With Cn1cc(CNCCc2cccnc2)c(-c2cccnc2)n1 the screen gave A: -11.42%; B: 5.976%.
With O=C1CSc2ccccc2N1Cc1noc(C2CCCO2)n1 (stereo not given) the screen gave A: 40.77%; B: 10.37%.
With CCN1C(=O)CC[C@@H]2[C@H]1CCN2C(=O)Cc1cccc(OC)c1 the screen gave B: 6.554%.
With CC(=O)NC1CCN(C(=O)c2cnc(COc3ccccc3)nc2O)C1 (stereo not given) the screen gave A: 6.861%; B: 2.17%.
With O=C1CCCN1Cc1nnc2n1CCCN(C(=O)c1ccc[nH]1)C2 the screen gave A: 30.18%; B: 2.469%.
With CC(C)Nc1ncnc2c1CCN(C(=O)Cc1ccccn1)CC2.O=C(O)C(F)(F)F the screen gave A: 11.44%.
With CCCn1cnnc1CNC(=O)CC1C(=O)NCCN1CC(C)(C)C (stereo not given) the screen gave A: 8.493%; B: -0.2141%.

Some entries from above, unchanged:

For Cc1nc(CN(C)CC2CCCN(CCc3ccc(Cl)cc3)C2)n(C)n1 (stereo not given) the result was A: 58.41% and 34.12%; B: 1.781%.
For CC(=O)NCC(=O)N1CCN(CCN(C)C)c2ncccc2C1 the result was B: 6.057%.

Data taken from ChEMBL document CHEMBL3988442, “University of Dundee, Small-Polar-MMV Screening Library” (2021).